# Results of single-concentration screens

Protein sequences, listed by entry. Tags and fused reporters are not part of them.
UniProt P9WPC5, whole entry: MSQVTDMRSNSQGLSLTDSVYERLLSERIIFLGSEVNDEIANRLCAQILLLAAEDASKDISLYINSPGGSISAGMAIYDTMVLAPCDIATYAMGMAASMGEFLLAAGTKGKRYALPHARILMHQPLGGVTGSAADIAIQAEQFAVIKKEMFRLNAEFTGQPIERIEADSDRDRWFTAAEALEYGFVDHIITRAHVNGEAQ
UniProt P9WPC3, whole entry partner: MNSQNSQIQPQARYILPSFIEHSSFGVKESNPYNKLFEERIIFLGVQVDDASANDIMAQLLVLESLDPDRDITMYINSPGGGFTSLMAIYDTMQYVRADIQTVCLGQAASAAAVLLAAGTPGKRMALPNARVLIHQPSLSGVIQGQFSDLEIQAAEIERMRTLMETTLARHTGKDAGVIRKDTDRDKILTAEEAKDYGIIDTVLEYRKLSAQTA
UniProt P9WFT3, whole entry: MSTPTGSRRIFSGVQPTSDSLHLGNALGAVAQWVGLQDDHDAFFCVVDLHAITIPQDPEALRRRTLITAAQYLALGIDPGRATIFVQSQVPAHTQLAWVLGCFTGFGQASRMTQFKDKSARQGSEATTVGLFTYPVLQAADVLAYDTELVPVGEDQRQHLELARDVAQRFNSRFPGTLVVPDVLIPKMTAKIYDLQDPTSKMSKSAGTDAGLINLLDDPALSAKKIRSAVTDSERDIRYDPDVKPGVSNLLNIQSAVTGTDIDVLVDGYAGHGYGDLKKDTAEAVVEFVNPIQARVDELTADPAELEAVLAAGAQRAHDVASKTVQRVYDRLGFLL
UniProt P9WNZ1, whole entry: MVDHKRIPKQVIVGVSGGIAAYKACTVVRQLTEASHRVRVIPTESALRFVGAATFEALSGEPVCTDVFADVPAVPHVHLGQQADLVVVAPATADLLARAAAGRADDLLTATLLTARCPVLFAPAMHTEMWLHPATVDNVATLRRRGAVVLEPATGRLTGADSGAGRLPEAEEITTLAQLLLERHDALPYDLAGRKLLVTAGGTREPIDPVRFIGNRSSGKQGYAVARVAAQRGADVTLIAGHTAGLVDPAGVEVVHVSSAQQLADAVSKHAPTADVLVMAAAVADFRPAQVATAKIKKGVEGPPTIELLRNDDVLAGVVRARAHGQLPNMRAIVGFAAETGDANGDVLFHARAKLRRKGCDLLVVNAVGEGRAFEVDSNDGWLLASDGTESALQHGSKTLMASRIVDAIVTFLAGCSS

The values are deposited in ChEMBL (CHEMBL3988442, “University of Dundee, Small-Polar-MMV Screening Library” (2021)).

Values are the deposited “Percent Effect”, in %. How 0% and 100% were set is not recorded. Most values in the screen are low, and negative values occur. The compounds are a random part of those screened.

ClpP1P2: 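ClpP1P2, Mycobacterium tuberculosis (UniProt P9WPC5 and UniProt P9WPC3). Protease assay of ClpP1P2, read by the AMC dye that it sets free. Compounds at 50 µM. Direction is inferred from only a few compounds that gave an IC50; most scored high, so higher reads as stronger inhibition. Most other retested compounds had strongly negative values. Of about 69,000 compounds tested this way, about 10 (0.015%) reached 50% or more in at least one test.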
Toxoplasma: 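Assay of Toxoplasma gondii numbers, read through their beta-galactosidase reporter with a colour substrate. Compounds at 10 µM. Higher reads as fewer parasites (inferred from which compounds were picked for retests). Of about 67,000 compounds tested this way, about 260 (0.38%) reached 50% or more in at least one test.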
MtTrpRS: 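Enzyme assay of tryptophanyl-tRNA synthetase; the read-out is not stated. Target: Tryptophan-tRNA ligase, Mycobacterium tuberculosis (UniProt P9WFT3). Concentration: 10 µM. Direction is not recorded; retested compounds ran higher, which suggests that high means inhibition. Size under these conditions: about 65,000 compounds, about 64 of them at 50% or above in at least one test.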
CoaBC: 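Coenzyme A biosynthesis protein CoaBC, Mycobacterium tuberculosis (UniProt P9WNZ1). Enzyme assay of CoaBC with a phosphate dye (Biomol Green) read at 650 nm. Tested at 30 µM. Direction is inferred from only a few compounds that gave an IC50; most scored high, so higher reads as stronger inhibition. Most strong results did not repeat in a second test. Of about 67,000 compounds tested this way, about 40 (0.06%) reached 50% or more in at least one test.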

With CC(C)N1CCC(c2ccnc3c(C(=O)N4CCCC4)ncn23)CC1 the screen gave ClpP1P2: -8.867%; Toxoplasma: -1.862%; MtTrpRS: -0.4845%. CC(C)Nc1nc2c(cc1C(=O)NCC1CC1)CCN(CC1CC1)CC2 gave ClpP1P2: -100.6%; MtTrpRS: -2.008%; CoaBC: -16.8%. Result for COc1cccc(-c2cccc(-c3ccn(CC4COCCO4)n3)c2)n1 (configuration not stated) was ClpP1P2: -5.496%; Toxoplasma: -0.7572%; MtTrpRS: 3.226%; CoaBC: 5.61%. For O=C(NCc1cc(O)ncn1)C1COc2ccccc2C1 (configuration not stated) the result was ClpP1P2: -6.605%; Toxoplasma: 6.556%; MtTrpRS: 1.42%; CoaBC: 2.193%. COc1ccc2c(c1)CC(NCc1cccc(OCC(N)=O)c1)CC2 (configuration not stated) gave ClpP1P2: -1.905%; Toxoplasma: -5.954%; MtTrpRS: -2.773%; CoaBC: 8.8%. Result for O=C(c1cccnc1)N1CCc2onc(CN3CCCC3)c2C1 was ClpP1P2: 2.922%; Toxoplasma: -10.6%; MtTrpRS: 2.891%; CoaBC: -7.917%. With Cc1cc(C)n(CC2CCN(CC(O)Cn3cccn3)CC2)n1 (configuration not stated) the screen gave ClpP1P2: 6.18%; Toxoplasma: 28.2%; MtTrpRS: -0.3564%; CoaBC: -2.45%.

COc1ncccc1NC(=O)N1CCC(CN2CCOCC2)CC1 gave ClpP1P2: -11.43%; Toxoplasma: -3.194%; MtTrpRS: -0.7105%; CoaBC: 2.679%. CCNc1ncc(C(=O)NC(c2ccccc2)c2ccco2)cn1 (configuration not stated) read ClpP1P2: 0.9466%; Toxoplasma: -20.62%; MtTrpRS: 1.961%. With COCC1CN(Cc2cc(C)on2)Cc2cn(CC3CCCC3)nc21.O=C(O)C(F)(F)F.O=C(O)C(F)(F)F (configuration not stated) the screen gave Toxoplasma: 4.187%. Cc1nc(CN2CCCN(C(=O)CC(C)n3cccc3)CC2)cs1 (configuration not stated) gave ClpP1P2: -21.86%; Toxoplasma: 7.412%; MtTrpRS: 0%; CoaBC: 2.785%. For CC(C)N(C)C[C@H]1OC[C@@H]2CCN(Cc3cccc(C#N)c3)C[C@@H]21 the result was ClpP1P2: -6.381%; MtTrpRS: 8.6%; CoaBC: 0.2049%. Result for CC(=O)N1CCN(C(=O)NCCc2ccc(Cl)s2)CC1 was ClpP1P2: 14.65%; Toxoplasma: -1.28%; MtTrpRS: 4.473%; CoaBC: 7.252%. CC(=O)Nc1nc(CN2CCOC(Cn3cncn3)C2)cs1 (configuration not stated) gave ClpP1P2: -29.18%; Toxoplasma: 8.49%; MtTrpRS: 0.5016%; CoaBC: 4.7%.

O=C(O)C1(Cc2ccc(F)cc2)CCCN(Cc2ccncc2)C1 (configuration not stated) gave ClpP1P2: -6.197%; Toxoplasma: -12.3%; MtTrpRS: -0.06915%; CoaBC: 4.703%. OC1(CNCc2csc(-c3ncccn3)n2)CCCNC1 (configuration not stated) read ClpP1P2: -7.801%; Toxoplasma: 13.62%; MtTrpRS: -0.05974%; CoaBC: 3.422%. With CC(C)COCC1CN(Cc2ccc3c(c2)OCO3)Cc2ncn(C)c21 (configuration not stated) the screen gave ClpP1P2: -3.474%; MtTrpRS: 12.95%; CoaBC: -4.348%.

For reference, 2 entries once more:

{"smiles": "COc1ncccc1NC(=O)N1CCC(CN2CCOCC2)CC1", "ClpP1P2": -11.43, "Toxoplasma": -3.194, "MtTrpRS": -0.7105, "CoaBC": 2.679}
{"smiles": "CC(C)Nc1nc2c(cc1C(=O)NCC1CC1)CCN(CC1CC1)CC2", "ClpP1P2": -100.6, "MtTrpRS": -2.008, "CoaBC": -16.8}